This sample is rich in variants without activity.
B1: tRNA (parent)
chain: GUUCCGUUGGCGUAAUGGUAACGCGUCUCCCUCCUAAGGAGAAGACUGCGGGUUCGAGUCCCGUACGGAACG

Variants of: B1
Test: yeast fitness relative to wild type (ratio to wild type); higher = fitter; tRNA-Arg(CCU), competitive growth, 37 C, YPD
Method in brief: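 Variants of the tRNA-Arg(CCU) gene were chemically synthesised with a 3% per-site mutation rate across 69 sites and placed at the native genomic locus in Saccharomyces cerevisiae. Six parallel replicates of the pooled strains were competed in YPD at 37°C for 24 hours, and gene amplicons from the start and end populations were read by 100-nucleotide paired-end sequencing. Darwinian fitness relative to wild type was derived from changes in genotype frequencies. Genotypes required ≥ 100 starting reads, and estimates < 0.5 were set to 0.5.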

| Variant | yeast fitness |
| --- | --- |
| C34G A37G C62A | ≤ 0.5 |
| C34G A40U A42U G67C | ≤ 0.5 |
| C34G C46U C55U | ≤ 0.5 |
| C34G C55U G63A G67A | ≤ 0.5 |
| C34G G38C C62G A69C | ≤ 0.5 |
| C34G G41C C49U C62A | ≤ 0.5 |
| C34G G44C G48C A70C | ≤ 0.5 |
| C34U A36C U53C A65G | ≤ 0.5 |
| C34U A36G A57G | ≤ 0.5 |
| C34U A37U G67C | ≤ 0.5 |
| C34U C60U C62G | ≤ 0.5 |
| C34U G38A A42U | ≤ 0.5 |
| C34U G52A C61U C66A | ≤ 0.5 |
| C34U G56A C60G C66G | ≤ 0.5 |
| C34U G63A C66U | ≤ 0.5 |
| C34U U54C C61A | ≤ 0.5 |
| U35A A42C A69U A70U | ≤ 0.5 |
| U35A A42G A43C C66U | ≤ 0.5 |
| U35A G39C C46A | ≤ 0.5 |
| U35A G41A C55U | 0.539 |
| U35C A42G C62A | ≤ 0.5 |
| U35C A42U | 0.819 |
| U35C A43C C55G C60A A65U | ≤ 0.5 |
| U35G A40C G63C | ≤ 0.5 |
| U35G A43C U47C C55U A69C | ≤ 0.5 |

| Variant | yeast fitness |
| --- | --- |
| U35G A43U G56A | ≤ 0.5 |
| A36C A40G A65U | ≤ 0.5 |
| A36C A42U A65U | 0.647 |
| A36C A43C C61G A70G | ≤ 0.5 |
| A36C A43G G48C | ≤ 0.5 |
| A36C A57U | 0.509 |
| A36C C60G G67A | ≤ 0.5 |
| A36C G50A A57G A65C | ≤ 0.5 |
| A36C G52A C61U | ≤ 0.5 |
| A36G A37U G56C | ≤ 0.5 |
| A36G A40G C55U | ≤ 0.5 |
| A36G A45C A57C U64A G68A | ≤ 0.5 |
| A36G C49U A69C | 0.836 |
| A36G C61U A69C | 0.693 |
| A36U A43C A70C | ≤ 0.5 |
| A36U A43C C49A C55G | ≤ 0.5 |
| A36U A45C C55U | ≤ 0.5 |
| A36U C49A C62G | ≤ 0.5 |
| A36U C61U C66U | 0.582 |
| A37C C46G C60U | ≤ 0.5 |
| A37C C46U U59A | ≤ 0.5 |
| A37G C55A G58C | ≤ 0.5 |
| A37U A42G C62U | ≤ 0.5 |
| A37U A42G G51A | ≤ 0.5 |
| A37U A57U C62U | ≤ 0.5 |

| Variant | yeast fitness |
| --- | --- |
| A37U C55G C61U C62U | ≤ 0.5 |
| A37U C62G A70U | ≤ 0.5 |
| G38A A40C G56A C60U C61G | ≤ 0.5 |
| G38A A42C U54C | ≤ 0.5 |
| G38A A57U | 0.772 |
| G38A C46A A57G | 0.769 |
| G38A C61A | 0.646 |
| G38A G67A | 0.881 |
| G38A U59G A69G | ≤ 0.5 |
| G38C G41C C49U A57G | ≤ 0.5 |
| G38C U47A A65G | ≤ 0.5 |
| G38U G48A A70U | 0.652 |
| G39A A70U | 0.915 |
| G39C A40G A57U | ≤ 0.5 |
| G39C A45G U53C | ≤ 0.5 |
| G39C G48C | 0.688 |
| A40C A45C | 0.616 |
| A40C C49U A69C | 0.592 |
| A40C G67A | 0.846 |
| A40C U54A C66A | ≤ 0.5 |
| A40G A43G G44C C61U | ≤ 0.5 |
| A40G C49A C55A | ≤ 0.5 |
| A40G G48A | 1.01 |
| A40U G52C C60G | ≤ 0.5 |
| A40U U54A C55U | ≤ 0.5 |

| Variant | yeast fitness |
| --- | --- |
| G41A A45U U53G | ≤ 0.5 |
| G41A C60U C61U | ≤ 0.5 |
| G41A C61A | 0.742 |
| G41A U53C A57C | ≤ 0.5 |
| G41C A42C A70C | ≤ 0.5 |
| G41C C60U U64G | ≤ 0.5 |
| G41C G52C A69C | ≤ 0.5 |
| G41C G56A | 0.825 |
| A42C A57U C66U | ≤ 0.5 |
| A42C C62U | 0.829 |
| A42G G52A A70G | ≤ 0.5 |
| A42G U59C C66G G68A | ≤ 0.5 |
| A42U A45U | 1.09 |
| A42U G44C A45U G58A C61U A69U | ≤ 0.5 |
| A42U G50C U53A | ≤ 0.5 |
| A42U U64A G67A | ≤ 0.5 |
| A43C C49A A65C | ≤ 0.5 |
| A43G G52C C62U G63A | ≤ 0.5 |
| A43G G56A C66U G68U | 0.557 |
| A43U A45U A57C | ≤ 0.5 |
| A43U G48C U54C C60A U64A | ≤ 0.5 |
| A43U G51C C61G | 0.593 |
| G44C C60A | 0.572 |
| A45C A57C G58C | 0.602 |
| A45C G50C G51C C55U G68A A70C | ≤ 0.5 |

| Variant | yeast fitness |
| --- | --- |
| A45C U47C C49U | 0.806 |
| A45C U53C | 0.823 |
| A45G A57G C60U G68C | ≤ 0.5 |
| A45G G51A G67A | 0.601 |
| A45G G58A C60U | 0.584 |
| A45U G50A C55G A70U | ≤ 0.5 |
| A45U G51C G67C | ≤ 0.5 |
| C46A U59C | 0.898 |
| C46G C60A G67U | 0.536 |
| U47A A57G | 0.923 |
| U47A G52C | 0.581 |
| U47G A57U C66U | ≤ 0.5 |
| U47G G50C C66A | ≤ 0.5 |
| G48A C60G C62A A65G | ≤ 0.5 |
| G48A G63A | 0.887 |
| C49G C55U A65U | ≤ 0.5 |
| C49U C55U A69C | 0.665 |
| C49U U54G C61U | ≤ 0.5 |
| G50A A65G | 1.03 |
| G50A U59C C66U | ≤ 0.5 |
| G50C U54A | 0.524 |
| G51C A65C C66G | ≤ 0.5 |
| G51C C55A G68A | ≤ 0.5 |
| G51C C55G | ≤ 0.5 |
| G51C U54C | ≤ 0.5 |

| Variant | yeast fitness |
| --- | --- |
| G52A G56U G67U | ≤ 0.5 |
| G52A U53A C62U | ≤ 0.5 |
| U53C C66U A69U | ≤ 0.5 |
| U53G A57C A70U | ≤ 0.5 |
| U53G U54G C55A | ≤ 0.5 |
| U54A U59C C61G | ≤ 0.5 |
| U54G G63A A65G G68U A70C | ≤ 0.5 |
| C55G A69C | 0.593 |
| C55G C62A | 0.619 |
| C55U U59C A65C | ≤ 0.5 |
| G56A A65U | 0.978 |
| G56C G58A G63C A65U | ≤ 0.5 |
| A57G | 0.998 |
| A57U | 0.731 |
| G58A C60U A70G | 0.702 |
| G58C G63C | 0.702 |
| U59A G68U A69U | ≤ 0.5 |
| C60A A69G | 0.56 |
| C61U A69G A70C | 0.923 |
| C61U G68C | 0.68 |
| C62U G68C A69G | 0.567 |
| G63A A69C | 0.941 |
| G63C A65C C66A | ≤ 0.5 |
| A65C G68A | 0.767 |
| C66A G68A | 0.695 |
